This is an account of results in US7272508B2, “Small molecule mimetics of erythropoietin” (The Scripps Research Institute, priority 1996, dated 2007).

No constants are given. Whether binding was seen depends on the method and setting. Some results given as binding are weak or reduced against the parent protein; the word gives no strength.

The target in test [1] is T1, EPO receptor (as used in receptor binding assays and on EPO responsive cells) (UniProt P19235).
T1 sequence (looked up): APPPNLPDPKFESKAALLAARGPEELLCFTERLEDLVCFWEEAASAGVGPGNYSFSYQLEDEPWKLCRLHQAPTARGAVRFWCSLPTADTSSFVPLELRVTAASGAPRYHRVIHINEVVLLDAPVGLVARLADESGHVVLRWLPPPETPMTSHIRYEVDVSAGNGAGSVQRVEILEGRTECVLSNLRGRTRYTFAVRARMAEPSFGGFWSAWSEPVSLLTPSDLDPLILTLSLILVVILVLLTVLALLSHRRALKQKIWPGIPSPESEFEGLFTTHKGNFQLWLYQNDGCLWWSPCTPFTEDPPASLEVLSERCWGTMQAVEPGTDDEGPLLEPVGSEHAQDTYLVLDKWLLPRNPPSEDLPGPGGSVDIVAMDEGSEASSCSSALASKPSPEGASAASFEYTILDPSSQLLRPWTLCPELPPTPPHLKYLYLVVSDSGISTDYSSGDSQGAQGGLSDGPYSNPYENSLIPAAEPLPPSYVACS
Put plainly: receptor binding assay, competition with EPO.

For test [2], the target named is T2, EPO binding protein (EBP), extracellular fragment of human EPO receptor, residues 1-225 (human) (UniProt P19235).
T2 sequence (looked up): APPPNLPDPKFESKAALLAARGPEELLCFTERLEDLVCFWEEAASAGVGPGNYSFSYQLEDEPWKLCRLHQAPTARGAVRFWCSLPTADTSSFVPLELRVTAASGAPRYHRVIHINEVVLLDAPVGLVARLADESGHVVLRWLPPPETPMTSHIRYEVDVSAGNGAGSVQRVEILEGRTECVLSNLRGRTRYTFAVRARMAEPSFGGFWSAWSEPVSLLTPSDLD
Nature of the test: co-crystal, difference Fourier.

B1: EMP1 (EPO Mimetic Peptide 1) (peptide)
peptide: GGTYSCHFGPLTWVCKPQGG
modifications: intramolecular disulfide bridge between Cys P6 and Cys P15 (cyclic)
As to B1, the binding entry in test [1] was “binds”.

B2: iodinated peptide (EMP1 with Tyr P4 substituted for p-iodo-Phe) (peptide)
peptide: GGTFSCHFGPLTWVCKPQGG
modifications: p-iodo-Phe at position P4 in place of Tyr
As to B2, in test [2], the binding entry was “binds”.
